{"source": "paper PMC12320246", "target": "T1, His-tagged OLFML1 (OLFML1^His), exogenously expressed in HEK293T (human) (UniProt Q6UWY5)", "T1 sequence": "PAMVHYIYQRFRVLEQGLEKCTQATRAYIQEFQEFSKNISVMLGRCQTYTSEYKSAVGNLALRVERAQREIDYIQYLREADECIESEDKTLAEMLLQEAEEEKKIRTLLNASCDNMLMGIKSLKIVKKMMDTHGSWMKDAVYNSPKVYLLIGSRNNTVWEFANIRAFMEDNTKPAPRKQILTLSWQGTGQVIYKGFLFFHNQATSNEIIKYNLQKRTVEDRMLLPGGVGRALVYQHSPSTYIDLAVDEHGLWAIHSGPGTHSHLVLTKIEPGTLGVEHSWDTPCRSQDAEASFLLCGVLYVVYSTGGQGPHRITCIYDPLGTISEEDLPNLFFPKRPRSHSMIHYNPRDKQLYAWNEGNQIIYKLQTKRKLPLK", "experiment": "co-IP; HEK293T cells co-transfected with His-tagged OLFML1 and Flag-tagged IGF2BP3 constructs (whole or truncated); IP with anti-Flag or anti-His; immunoblot with anti-Flag or anti-His", "note": "Results are given in words; binding and its absence hold for the method and conditions named. Binding seen in cells or lysates may run through a third protein. Binding can be weak; no strength is given. Tags and fused reporters may be left off the sequences shown."}
{"substance": "RRM+KH1-2 truncation of Flag-IGF2BP3 (domain or fragment)", "values": [{"measurement": "binding", "value": "binds"}]}
